# Test results: patent US11300567B2, “Methods and compositions for protein purification and enzyme reaction” (THE REGENTS OF THE UNIVERSITY OF CALIFORNIA, priority 2015, dated 2022)
# Some results were stated once for a whole list of compounds, not compound by compound.
# Assay: VFD enhancement of enzyme activity, colorimetric assay (Example 1 summary)
# Format: biochemical
# Conditions: VFD vs non-VFD
substance,measurement,value
alkaline phosphatase,enhancement in catalytic productivity by VFD,≤ 12 fold
